The results in this text go back to PMC10561432.

The target in the assay is T1, HA-Stat1 (signal transducer and activator of transcription 1) (UniProt P42225).
T1 sequence: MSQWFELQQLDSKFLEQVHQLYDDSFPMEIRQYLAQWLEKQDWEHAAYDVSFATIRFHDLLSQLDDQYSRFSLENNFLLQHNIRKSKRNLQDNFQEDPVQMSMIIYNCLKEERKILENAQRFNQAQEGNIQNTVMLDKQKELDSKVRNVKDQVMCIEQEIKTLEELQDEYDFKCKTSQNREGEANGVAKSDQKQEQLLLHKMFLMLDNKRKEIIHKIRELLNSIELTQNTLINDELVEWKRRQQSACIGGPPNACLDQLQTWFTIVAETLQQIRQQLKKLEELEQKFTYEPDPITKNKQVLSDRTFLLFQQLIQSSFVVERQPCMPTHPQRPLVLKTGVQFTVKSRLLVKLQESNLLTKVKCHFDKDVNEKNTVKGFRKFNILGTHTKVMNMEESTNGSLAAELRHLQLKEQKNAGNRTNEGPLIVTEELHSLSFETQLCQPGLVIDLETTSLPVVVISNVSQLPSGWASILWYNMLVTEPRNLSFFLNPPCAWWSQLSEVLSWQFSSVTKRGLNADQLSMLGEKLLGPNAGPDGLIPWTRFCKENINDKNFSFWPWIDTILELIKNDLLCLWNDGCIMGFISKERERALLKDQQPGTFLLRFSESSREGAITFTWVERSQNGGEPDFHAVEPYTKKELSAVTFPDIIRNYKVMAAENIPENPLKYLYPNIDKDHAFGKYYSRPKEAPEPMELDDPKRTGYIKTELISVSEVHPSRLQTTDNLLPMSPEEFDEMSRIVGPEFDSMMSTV
The assay can be described thus: co-IP; HEK293T cells co-transfected with Flag-GADD45A and HA-Stat1 plasmids; lysate precleared with protein A/G agarose, anti-GADD45A or anti-Stat1 antibody at 4 °C overnight, protein A/G agarose 2 h, washed with cold PBS three times, western blotting.

These are yes or no findings as the source states them, for the method shown. Binding seen in cells or lysates may run through a third protein. Some results given as binding are weak or reduced against the parent protein; the word gives no strength. Sequences can lack the tags named with a protein.

B1: Flag-GADD45A (growth arrest and DNA damage-inducible A) (protein, UniProt P48316 1-165)
chain: MTLEEFSAAEQKTERMDTVGDALEEVLSKARSQRTITVGVYEAAKLLNVDPDNVVLCLLAADEDDDRDVALQIHFTLIRAFCCENDINILRVSNPGRLAELLLLENDAGPAESGGAAQTPDLHCVLVTNPHSSQWKDPALSQLICFCRESRYMDQWVPVINLPER
For the molecule B1, the binding result was “binds”.
